Repeats are few or missing, and single values can be far off.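 All cells are established human bladder cancer lines, one of them grown from a patient-derived xenograft. Viability was read by a luminescent ATP assay as percent inhibition versus vehicle over a seven-point dilution series; the paper calls scores above 59 very active, 30–59 active, 21–29 semi-active, 9–20 low active and below 9 inactive.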
What was measured:
Assay in all cases: drug sensitivity score DSS3 (score 0-100); higher = more sensitive; extreme values may be limits of the assay
Details in all cases: culture: 3D, ultra-low attachment; treatment time: 5 days
5637 = tested on: 5637
UM-UC-9 = tested on: UM-UC-9
BC8149 = tested on: BC8149
TCCSUP = tested on: TCCSUP
UM-UC-1 = tested on: UM-UC-1
SCaBER = tested on: SCaBER
UM-UC-15 = tested on: UM-UC-15
UM-UC-3 = tested on: UM-UC-3
UM-UC-14 = tested on: UM-UC-14
J82 = tested on: J82
UM-UC-5 = tested on: UM-UC-5
UM-UC-12 = tested on: UM-UC-12
UM-UC-18 = tested on: UM-UC-18
UM-UC-17 = tested on: UM-UC-17
UM-UC-6 = tested on: UM-UC-6
SW780 = tested on: SW780
T-24 = tested on: T-24

SMILES	drug sensitivity score DSS3 5637	drug sensitivity score DSS3 (UM-UC-9)	drug sensitivity score DSS3 (BC8149)	drug sensitivity score DSS3 (TCCSUP)	drug sensitivity score DSS3 (UM-UC-1)	drug sensitivity score DSS3 (SCaBER)	drug sensitivity score DSS3 (UM-UC-15)	drug sensitivity score DSS3 (UM-UC-3)	drug sensitivity score DSS3 (UM-UC-14)	drug sensitivity score DSS3 (J82)	drug sensitivity score DSS3 (UM-UC-5)	drug sensitivity score DSS3 (UM-UC-12)	drug sensitivity score DSS3 (UM-UC-18)	drug sensitivity score DSS3 (UM-UC-17)	drug sensitivity score DSS3 (UM-UC-6)	drug sensitivity score DSS3 (SW780)	drug sensitivity score DSS3 (T-24)
Cc1ccc(-c2cc(C(F)(F)F)nn2-c2ccc(S(N)(=O)=O)cc2)cc1 [Celecoxib] (max dose 10000 nM)	4.61	0	0.644	5.92	0	0	0	0	0.717	0	0	0	0	0	0	0	0
COc1cccc2cc(-c3nc([C@H]4CC[C@H](C(=O)O)CC4)n4ncnc(N)c34)[nH]c12 [OSI-027] (max dose 10000 nM)	7.02	3.09	24.3	10.9	4.36	5.98	0	0	6.84	2.9	14	0	4.16	0	10.1	1.04	0
Cc1c(-c2ccnn2C)cc(C(=O)NCc2ccc(S(C)(=O)=O)cn2)c(=O)n1-c1cccc(C(F)(F)F)c1 [Alvelestat (AZD9668)] (max dose 10000 nM)	0	0	0	0	0	0	0	0	0	0	0	0	0	0	0	0	0
CCN(CC)CCCC(C)Nc1nc(C)cc(Nc2ccc3nc(C)cc(N)c3c2)n1 (centres undefined) (max dose 10000 nM)	0.0829	0.063	0.033	1.61	0	0	0	0	0	0	0.000524	0	1.24	0	0.327	0	0
COc1ccc(-c2ccc3c(N4CCOC[C@@H]4C)nc(N4CCOC[C@@H]4C)nc3n2)cc1CO [AZD8055] (max dose 10000 nM)	28.8	13.7	49.1	51.1	30.7	30.4	3.75	28.1	14.1	20.3	25.9	24.1	22.9	9.66	25.3	15.6	1.91
O=C(O)C(Cc1c[nH]c2ccccc12)N1C(=O)c2ccccc2C1=O (centres undefined) [RG108] (max dose 10000 nM)	0	0	2.62	0.75	1.53	0	0	1.18	0.743	0	0	0	0	0	0	0	0
CNC(=O)c1ccc(N2C(=S)N(c3ccc(C#N)c(C(F)(F)F)c3)C(=O)C2(C)C)cc1F [Enzalutamide (MDV3100)] (max dose 10000 nM)	0	0	0	1.1	0	1.89	0	0	0	0	0	0	0	0	0	0	0
COc1ccc(C(=O)Nc2sc3c(c2C(N)=O)CCCC3)cc1OC [TCS 359] (max dose 10000 nM)	0	0	0	0.575	0	0.247	0	0	0.0363	0	0	0	0	0	0	0	0
CS(=O)(=O)n1cc2c(n1)CN([C@H]1CO[C@H](c3cc(F)ccc3F)[C@@H](N)C1)C2 [Omarigliptin (MK-3102)] (max dose 10000 nM)	0.588	0	0.769	0	0	0	11.2	0	0	0	0	6.85	0.0453	0.112	0	0	0
O=C(O)CCCc1ccccc1 [Sodium Phenylbutyrate] (max dose 10000 nM)	0	0	0	0	0	0	14.9	0	0.581	0	0	0	0	0	0	0	0
CN1C(=O)NC(Cc2c[nH]c3c(Cl)cccc23)C1=O (centres undefined) [Nec-1s (7-Cl-O-Nec1)] (max dose 10000 nM)	0.221	1.61	1.04	0.236	0.219	1.77	1.6	0	0.6	0.142	1.29	1.97	3.66	0.227	0.105	1.37	0
C[C@@H]1CN(CC(=O)Nc2ccc3c(c2)Cc2cccc(-c4cc(=O)cc(N5CCOCC5)o4)c2S3)C[C@H](C)O1 (max dose 10000 nM)	0.73	0	4.89	1.21	0	0.0136	0	2.74	0.0658	0	0	0	0	0.253	0.177	0	0

Entries of single compounds, looked up by structure. Order of values: drug sensitivity score DSS3 5637 | drug sensitivity score DSS3 (UM-UC-9) | drug sensitivity score DSS3 (BC8149) | drug sensitivity score DSS3 (TCCSUP) | drug sensitivity score DSS3 (UM-UC-1) | drug sensitivity score DSS3 (SCaBER) | drug sensitivity score DSS3 (UM-UC-15) | drug sensitivity score DSS3 (UM-UC-3) | drug sensitivity score DSS3 (UM-UC-14) | drug sensitivity score DSS3 (J82) | drug sensitivity score DSS3 (UM-UC-5) | drug sensitivity score DSS3 (UM-UC-12) | drug sensitivity score DSS3 (UM-UC-18) | drug sensitivity score DSS3 (UM-UC-17) | drug sensitivity score DSS3 (UM-UC-6) | drug sensitivity score DSS3 (SW780) | drug sensitivity score DSS3 (T-24)
CCN(CC)CCCC(C)Nc1nc(C)cc(Nc2ccc3nc(C)cc(N)c3c2)n1 (centres undefined) (max dose 10000 nM) in the list: 0.0829 | 0.063 | 0.033 | 1.61 | 0 | 0 | 0 | 0 | 0 | 0 | 0.000524 | 0 | 1.24 | 0 | 0.327 | 0 | 0
COc1ccc(C(=O)Nc2sc3c(c2C(N)=O)CCCC3)cc1OC [TCS 359] (max dose 10000 nM) in the list: 0 | 0 | 0 | 0.575 | 0 | 0.247 | 0 | 0 | 0.0363 | 0 | 0 | 0 | 0 | 0 | 0 | 0 | 0
